About 45 (2%) of roughly 3,000 compounds showed an effect of 50% or more. This is one part of the list.

In the experiment the test system is MOLM1 and UCSD/AML1 (averaged). As to the kind of experiment: cell viability relative to DMSO control (POC); higher = less growth inhibition. As to conditions: 1 µM; 72 h. Here is the method: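 Primary viability screen in the 3q26 EVI1-high AML cell lines MOLM1 and UCSD/AML1, compounds at 1 uM for 72 h. ATP CellTiter-Glo read-out given as percent viable over DMSO control (POC), averaged over duplicates. This mapping covers the TimTec NDL-3000 natural derivative library, whose compounds are identified by TimTec catalogue codes (ST...).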
As to `COC(=O)C1=C(N)Oc2c(c(=O)oc3ccccc23)C1c1ccc(C(F)(F)F)cc1` (stereo not given), the cell viability worked out at 96.5%.

Regarding `COc1cc(-c2cc(=NCC3CCCO3)c3ccccc3o2)ccc1O.[O-][Cl+3]([O-])([O-])O` (stereo not given), the cell viability is 77.3%.

Regarding `CCCCNCC(O)c1ccc(O)cc1` (stereo not given), the cell viability was 104%.

For the compound `CC(=O)OC1CCC2(C)C3CCC4(C)C(CC[C@]4(OC(C)=O)C(C)OC(C)=O)C3CC[C@H]2C1` (stereo not given in full), the cell viability amounted to 109%.

With `CN1C(=O)C(=Cc2ccc3c(c2)OCO3)C(=O)N(C)C1=O`, the cell viability worked out at 111%.

Turning to `C=CCN1C(=O)NC(=O)C(Cc2ccc(OC)c(OC)c2)C1=O` (stereo not given), the cell viability is 99.8%.

Consider `CC(C)[C@@H]1CC[C@@H](C)C[C@H]1OC(=O)[C@@H]1CN1[C@H](C)c1ccccc1` (stereo not given in full), for which the cell viability amounted to 80.3%.

On to `CCOC(=O)c1c(C)n(C2CCCCC2)c2cc(Br)c(O)cc12`, for which the cell viability amounted to 103%.

For the compound `COC(=O)C1=C(N)Oc2c(c(=O)oc3ccccc23)C1c1cccc(Br)c1` (stereo not given), the cell viability worked out at 98.5%.

For `Cc1ccc(C2C(C#N)=C(N)Oc3c2c(=O)oc2ccccc32)o1` (stereo not given), the cell viability worked out at 101%.

`C/C=C1\C[N+]2(C)CCC34C(=C(C=O)C1CC32)Nc1ccccc14` (stereo not given): the cell viability came to 98%.

In the case of `O=c1[nH]c(O)c(N=Nc2cc([N+](=O)[O-])ccc2O)c(=O)[nH]1`, the cell viability is 89.2%.

For `CC(O)CN1CCCCC1c1cccnc1.O.O.[Cl][Cu][Cl]` (stereo not given), the cell viability was found to be 109%.

Regarding `CC(=O)c1ccc2c(c1)OCO2`, the cell viability is 98.9%.

For the compound `COc1cc2c(cc1OC)C13CCN4C(=O)C(=O)C(CC41)C1C(OCC(=O)O)CC(=O)N2C13` (stereo not given), the cell viability is 90.7%.

On to `OCC1N2CCC(CC2)C1(O)O` (stereo not given), for which the cell viability came to 32.3%.

`O=C(Cn1c(C(=O)c2ccccc2)nc2ccccc21)NCCc1ccccc1`: the cell viability was 99.4%.

For `COCCOC(=O)c1c(C)n(Cc2ccccc2)c2c1cc(O)c1ccccc12`, the cell viability came to 106%.

On to `CCCCCCCCCCn1c(C)c(C(=O)OCC)c2cc(O)ccc21`, for which the cell viability was found to be 107%.

Turning to `O=c1c(/C=C2\C=Nc3ccccc32)c(O)n(-c2ccccc2)c(=O)n1-c1ccccc1`, the cell viability came out at 87.3%.

Turning to `CN(C)Cc1c[nH]c2cc([N+](=O)[O-])ccc12`, the cell viability was found to be 103%.

In the case of `COC(=O)c1c(C)n(CC2CCCO2)c2ccc(O)cc12` (stereo not given), the cell viability came out at 97%.

On to `NCCc1cccc(O)c1`, for which the cell viability amounted to 102%.

In the case of `O=c1cccc2n1CC1CC2CN(c2nc(-c3ccccc3)cs2)C1` (stereo not given), the cell viability turned out to be 98.5%.

`O=c1[nH]c(O)c(N=Nc2ccccc2[N+](=O)[O-])c(=O)[nH]1`: the cell viability stood at 108%.

For the compound `CCOC(=O)C1=C(N)Oc2c(c(=O)oc3ccccc23)C1c1cccnc1` (stereo not given), the cell viability came out at 90.1%.

As for `O=C(CBr)c1cc2ccccc2oc1=O`, the cell viability is 100%.

For `COC(=O)C1=C(N)Oc2c(c(=O)oc3ccccc23)C1c1ccccc1Br` (stereo not given), the cell viability was 99.7%.

Turning to `C/C=C1\C[N+]2(C)CCC34c5cccc(O)c5NC3C(C=O)[C@H]1CC42` (stereo not given in full), the cell viability was determined as 99.9%.

For `CNCCc1c[nH]c2ccc(CS(=O)(=O)O)cc12`, the cell viability is 105%.

In general, cell viability refers to a read-out of living cells in per cent, often relative to untreated cells.

Values taken from the supplement of paper PMC11150407.
